Data published in patent US11680049B2, “Certain (2S)-N-[(1S)-1-cyano-2-phenylethyl]-1,4-oxazepane-2-carboxamides as dipeptidyl peptidase 1 inhibitors” (AstraZeneca AB, priority 2014, dated 2023).

Assay: Test B: In-vitro competitive aortic tissue binding assay
Set-up: species or system Han Wistar rat
Details: 100 μM compound pre-incubated overnight with rat aortic homogenate, competition with 14C-labelled WO2010/128324 Ex. 3, categories: strong binder, medium binder, no binder
In the case of `Cn1c(=O)oc2ccc(-c3ccc(C[C@@H](C#N)NC(=O)[C@@H]4CNCCCO4)cc3)cc21` [Example 2, (2S)—N-{(1S)-1-Cyano-2-[4-(3-methyl-2-oxo-2,3-dihydro-1,3-benzoxazol-5-yl)phenyl]ethyl}-1,4-oxazepane-2-carboxamide], the “Aortic Tissue Binding” value is reported as “No binder”.
With `N#Cc1ccc(-c2ccc(C[C@@H](C#N)NC(=O)C3(N)CCOCC3)cc2)cc1` [WO2010/128324 (Ex. 3), 4-amino-N-[(1S)-1-cyano-2-(4′-cyanobiphenyl-4-yl)ethyl]tetrahydro-2H-pyran-4-carboxamide] the “Aortic Tissue Binding” value was “Strong binder (reference)”.
In the case of `N#Cc1ccc(-c2ccc(C[C@@H](C#N)NC(=O)[C@@H]3CCCCN3)cc2)cc1` [WO2009/074829 (Example 24)], the “Aortic Tissue Binding” value is reported as “Binder”.
In the case of `Cn1c(=O)oc2ccc(-c3ccc(C[C@@H](C#N)NC(=O)C4(N)CCOCC4)cc3)cc21` [WO2010/128324 (Example 17)], the “Aortic Tissue Binding” value is reported as “Strong binder”.
For `Cn1c(=O)oc2ccc(-c3ccc(C[C@@H](C#N)NC(=O)[C@@H]4CCCCN4)cc3)cc21` [WO2009/074829 (Example 96)], the “Aortic Tissue Binding” value was “Medium binder”.
